According to article PMC7819943, “Rice protein-binding microarrays: a tool to detect cis-acting elements near promoter regions in rice”:
The other results are listed elsewhere or left out.

Amino acid sequences for entries named in this document (tags omitted).
UniProt Q0JBA9, entry or part of it: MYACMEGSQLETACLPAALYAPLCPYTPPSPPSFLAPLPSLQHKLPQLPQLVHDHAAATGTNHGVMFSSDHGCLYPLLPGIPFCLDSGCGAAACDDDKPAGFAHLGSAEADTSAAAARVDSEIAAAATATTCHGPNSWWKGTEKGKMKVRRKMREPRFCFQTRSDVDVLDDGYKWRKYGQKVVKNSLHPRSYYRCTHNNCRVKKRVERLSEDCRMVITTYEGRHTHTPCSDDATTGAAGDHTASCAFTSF

Each sequence was assayed against OsWRKY34 (Oryza sativa, UniProt Q0JBA9 1-250) (assay: protein-binding microarray (RPBM); PBS, 2% BSA, 51.3 ng/ul salmon testes DNA, 50 uM zinc acetate, 200 nM TF, 25 C, 1 h; high values mean tight binding). Conditions: protein: recombinant; tags: N-terminal polyhistidine and DsRed monomer fusion (pET32a); label: CyDye5-dUTP incorporated in the synthesized complementary strand; 3' TTTTT single-stranded linker to array surface; dsDNA, one strand shown.
In short: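 Transcription factors were each fused at the N-terminus to a polyhistidine tag plus DsRed and expressed in E. coli BL21-CodonPlus before Ni–NTA purification. Binding to a double-stranded custom Agilent array was carried out with 200 nM protein at 25 °C for 1 h in PBS, 2% BSA, salmon testes DNA and 50 µM zinc acetate. The binding signal is per-feature fluorescence intensity, in arbitrary units, on an Axon 4000B scanner.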

Sequence | binding signal
TTTGAAGTACTGGTCAGCAAGTTTTTACTCTCTCCTCGCTCGGAGTCACCTAGTGCAG | 8530 fluorescence intensity (a.u.)
TGTTTTTTTTTGTGTTCTATATGTTGTTTCCCGTGGTCGTCGGAGTCACCTAGTGCAG | 12100 fluorescence intensity (a.u.)
TTCTGATTTCTTACTATTCAACATCATATCTTTTTGTGATCGGAGTCACCTAGTGCAG | 9320 fluorescence intensity (a.u.)
CTCAGTCGACCAATCGTTGATCGCCACGTCGGCTGTTCTTCGGAGTCACCTAGTGCAG | 8350 fluorescence intensity (a.u.)
ATTTTTTTTTTCACGTGCCGATTGGCCTTATGTTGAAATCCGGAGTCACCTAGTGCAG | 10300 fluorescence intensity (a.u.)
CACCTTCTTTTGCTGCTAATCACGTTTTAGTTCGAATTAACGGAGTCACCTAGTGCAG | 9270 fluorescence intensity (a.u.)
CTTCTTTGTTCTGATTGCTCCCATTGACTTCATTATTGACCGGAGTCACCTAGTGCAG | 13000 fluorescence intensity (a.u.)
GTTCCTTGATGATTATACCACTTCACCTTTGTTTTTTTTTCGGAGTCACCTAGTGCAG | 10200 fluorescence intensity (a.u.)
GGTTTGCACTTTTTATTTCAGCGAAAATTTCTGTAGCACCCGGAGTCACCTAGTGCAG | 8360 fluorescence intensity (a.u.)
AGTGAACATGCTGGTTTTTAGCTATATTTGTAACAACGTTCGGAGTCACCTAGTGCAG | 9120 fluorescence intensity (a.u.)
ATCTAACTGTTGTCGATCTGGCGGTCTGACGATCTGACTCCGGAGTCACCTAGTGCAG | 12700 fluorescence intensity (a.u.)
GTGTGCTTGACTAGGTTGCCGTTGATTTGTGTTTTGACTTCGGAGTCACCTAGTGCAG | 10000 fluorescence intensity (a.u.)
GTCTGCGAGGTCAGCTCACCTTGAAAATGTTAGGGTTTTTCGGAGTCACCTAGTGCAG | 8170 fluorescence intensity (a.u.)
TCTTTTGTTTTCCTCTTTCTTCACCCTTGCGCTGCCGTTCCGGAGTCACCTAGTGCAG | 12100 fluorescence intensity (a.u.)
ATGGCGGAGCTCTCGTTCCTGTTATTCTTGCATGCCAAGTCGGAGTCACCTAGTGCAG | 9180 fluorescence intensity (a.u.)
GCGAGAGTGGTGGTGGTGGTGGCCTCGTAGTGGAGAGCGACGGAGTCACCTAGTGCAG | 9230 fluorescence intensity (a.u.)
TGTCCGTCTCCGACCTGCCCATGCTGTCGTGCCACTACATCGGAGTCACCTAGTGCAG | 9660 fluorescence intensity (a.u.)
CCACTCCAGCGCCTCACCGTACACTCCACCGTAGCTCGGTCGGAGTCACCTAGTGCAG | 11600 fluorescence intensity (a.u.)
TTAATTCTGTATTTATGGCATGATCATGTTATCTCCTTAACGGAGTCACCTAGTGCAG | 8910 fluorescence intensity (a.u.)
GATAATGGCTACCGTGCTGGATTCATGTCACCCACTTCTCCGGAGTCACCTAGTGCAG | 10000 fluorescence intensity (a.u.)
AGTCATTATGCCATGTCTATATATTTTTGTTTGTTTTTTCCGGAGTCACCTAGTGCAG | 10100 fluorescence intensity (a.u.)
CTCACACTCTGATCATCCATCCGCGGGTGGGTTGACCTCTCGGAGTCACCTAGTGCAG | 9350 fluorescence intensity (a.u.)
TCGTAAAGTTTTGATTGCTCTTTTTTTCTTTAACTAATCACGGAGTCACCTAGTGCAG | 8180 fluorescence intensity (a.u.)
TCCGTCACTCGCTCGCCGCGCTATATAAACCCCACATCCTCGGAGTCACCTAGTGCAG | 9940 fluorescence intensity (a.u.)
TGGGCTTCATCTTGTCTTGTTGTTGCTAGTACTTTCTAGACGGAGTCACCTAGTGCAG | 9690 fluorescence intensity (a.u.)
GAGGTTGTTTTGTCGTCTAGCAAGTGTGTGTCGGGTGGCGCGGAGTCACCTAGTGCAG | 9220 fluorescence intensity (a.u.)
CCATCCTTTTCCAAGATTATTATAGCTACAGGTTCTCAGACGGAGTCACCTAGTGCAG | 8420 fluorescence intensity (a.u.)

Sequence | binding signal
TGGGATGGAGGGAGTAGTACAAATTTAAAATATTCAAAATCGGAGTCACCTAGTGCAG | 9940 fluorescence intensity (a.u.)
GGTGTTGTCAGGGTGAGGGGAGTCAGATGCGCGCGGAATGCGGAGTCACCTAGTGCAG | 8620 fluorescence intensity (a.u.)
TGGATCTTCTTGTTCTGCTGAAGCAGCCGCCTCTCGTCGTCGGAGTCACCTAGTGCAG | 8560 fluorescence intensity (a.u.)
ATTCTTGGCCCTGTTCCTATGGGCTTTGGTGGGCTTTAAACGGAGTCACCTAGTGCAG | 11700 fluorescence intensity (a.u.)
TGGTTTGAGTTGTCGTGTTTCCTCTCGGCGGCGCGGGGCACGGAGTCACCTAGTGCAG | 10500 fluorescence intensity (a.u.)
ACAATTGTATTCCTGCCAGAATCCTCTGTTTTTTCATTCCCGGAGTCACCTAGTGCAG | 9260 fluorescence intensity (a.u.)
CCGGGTGCGATCGCTCATCACGGCCTCTGTTTCCGCGCTCCGGAGTCACCTAGTGCAG | 9560 fluorescence intensity (a.u.)
TGCATACTAACTCTTTACCAGAATACTTGTCATTCTAAATCGGAGTCACCTAGTGCAG | 8480 fluorescence intensity (a.u.)
CCACACACGCACCGCCCTCTCTACCCGCACCACCGTAGCACGGAGTCACCTAGTGCAG | 9540 fluorescence intensity (a.u.)
ATGGTTTGATATTTTGATCAGGCTTTATCTCTCGGTTCACCGGAGTCACCTAGTGCAG | 8130 fluorescence intensity (a.u.)
GTCACTACCCTTTTGTAACTGTAAGTCGTGTTAATTAAGCCGGAGTCACCTAGTGCAG | 9900 fluorescence intensity (a.u.)
ACGGAAACCCTAACCCTATGCGTCTCGCTTTCCCAGCCGACGGAGTCACCTAGTGCAG | 10500 fluorescence intensity (a.u.)
TTAGTCGCAATCTATACAATTAGTTATTTTTTAAGCATATCGGAGTCACCTAGTGCAG | 8390 fluorescence intensity (a.u.)
TACATCCTTAGTTCCTTGACCACCAGCACATAAACACAAACGGAGTCACCTAGTGCAG | 9010 fluorescence intensity (a.u.)
ACCAGCCACGTTGCCCAAATCGCTCCTGACCAGACACAAGCGGAGTCACCTAGTGCAG | 8340 fluorescence intensity (a.u.)
AGAACAGTTTTTAATCTGACATGTGCCTGTAGTTTGTTGTCGGAGTCACCTAGTGCAG | 10600 fluorescence intensity (a.u.)
TTTTTTACCATGGGTCTTGCATTGAATTTTTCTTTTTTTTCGGAGTCACCTAGTGCAG | 9890 fluorescence intensity (a.u.)
CATACCGTCCTCCGCGATTTAACCATCTCCATCTCCACCGCGGAGTCACCTAGTGCAG | 8120 fluorescence intensity (a.u.)
TCGTCCCATCTCCACCCTTTCCTCAGGCAGGCGCACATCTCGGAGTCACCTAGTGCAG | 8840 fluorescence intensity (a.u.)
ATGACTTCCCTCTGCTCTGTTATTTTCATGTTCTTTGATACGGAGTCACCTAGTGCAG | 8640 fluorescence intensity (a.u.)
AACCGTGTGCAGCATTGTTTTTACTCTCTTCTACCATTTGCGGAGTCACCTAGTGCAG | 8440 fluorescence intensity (a.u.)
TTTTTGCTGCTGACTTATATTAATATTGGTACGCGTCGTCCGGAGTCACCTAGTGCAG | 8300 fluorescence intensity (a.u.)
GAATGATCGCTAGAGTAAGAGCGCCCAACCGTTGACTCGGCGGAGTCACCTAGTGCAG | 8980 fluorescence intensity (a.u.)
ACTCGCTCTCTCCATCTCGTCTCGCCCAAGCGCACGCGTTCGGAGTCACCTAGTGCAG | 8970 fluorescence intensity (a.u.)
GACCACTAGCAGCCTCGTAACGTTTGCCTCATTTCATCAGCGGAGTCACCTAGTGCAG | 10500 fluorescence intensity (a.u.)
GTGTGTGTGCGAGTGAGTGTTTGGGCTGACAAGTGGTATCCGGAGTCACCTAGTGCAG | 10000 fluorescence intensity (a.u.)
TACATTGTGAAACGGAGGGAGTAGTAACTAAACAAGCGCTCGGAGTCACCTAGTGCAG | 8520 fluorescence intensity (a.u.)

Random excerpt: five records from the list
Sequence | binding signal
AGAACAGTTTTTAATCTGACATGTGCCTGTAGTTTGTTGTCGGAGTCACCTAGTGCAG | 10600 fluorescence intensity (a.u.)
TCTTTTGTTTTCCTCTTTCTTCACCCTTGCGCTGCCGTTCCGGAGTCACCTAGTGCAG | 12100 fluorescence intensity (a.u.)
ACCAGCCACGTTGCCCAAATCGCTCCTGACCAGACACAAGCGGAGTCACCTAGTGCAG | 8340 fluorescence intensity (a.u.)
GCGAGAGTGGTGGTGGTGGTGGCCTCGTAGTGGAGAGCGACGGAGTCACCTAGTGCAG | 9230 fluorescence intensity (a.u.)
GTGTGCTTGACTAGGTTGCCGTTGATTTGTGTTTTGACTTCGGAGTCACCTAGTGCAG | 10000 fluorescence intensity (a.u.)
